# Test results: the supplement of paper PMC11438910
# This is one part of the list. Only a few entries rise above the background.
# B1: 4-127.4 (protein)
# chain 1: QVQLQESGPGLVKPSETLSLTCGVSGYSISSGHGWSWIRQPPGKGLEWIGYVGGSSGNTNYNPSLKSRVTISKDTSKNQISLKLSSVTAADTAVYYCARRGISGTFGLVDYWGQGVLVTVSS
# chain 2: QSVLTQPPSVSGAPGQRVTISCTGSSSNIGGYYVQWYQQLPGSAPKLLIYDNDQRPSGVSDRISGSRSGTSASLTITGLQSEDEADYYCQSFDSFLRGVLFGGGTRLTVL
# B2: 4-173.4 (protein)
# chain 1: QLQLQESGPGLVKPSETLSLTCAVSGGSISSHYWSWIRQPPGKGLEWIGRFSAGGGSTDYNPSLKSRVTISTDTSKNQFTLNLNSVTAADTAVYYCTRGSYTSDYWGQGVLVTVSS
# chain 2: QAALTQSPSVSGSPGQSVTISCTGTSSDIGGYIRVSWYQQHPGKAPKLMIYEVSKRPSGVSDRFSGSKSGNTASLTISGLQAEDEADYYCFSYARGDTVLLGGGTRLTVL
# How the values were obtained:
# Experiment in all cases: fluorescence intensity of antibody binding to polysaccharide-coupled beads; higher = stronger binding
# [1] = molecular target: pneumococcal polysaccharide Pn6A
# [2] = molecular target: pneumococcal polysaccharide Pn6B
# [3] = molecular target: pneumococcal polysaccharide Pn6C
# [4] = molecular target: pneumococcal polysaccharide Pn6D
# [5] = molecular target: pneumococcal polysaccharide Pn7A
# [6] = molecular target: pneumococcal polysaccharide Pn7B
# [7] = molecular target: pneumococcal polysaccharide Pn7C
# [8] = molecular target: pneumococcal polysaccharide Pn7F
# [9] = molecular target: pneumococcal polysaccharide Pn8
# [10] = molecular target: pneumococcal polysaccharide Pn9A
# [11] = molecular target: pneumococcal polysaccharide Pn9L
# [12] = molecular target: pneumococcal polysaccharide Pn9N
# [13] = molecular target: pneumococcal polysaccharide Pn9V
# [14] = molecular target: pneumococcal polysaccharide C-Poly-1
# [15] = molecular target: pneumococcal polysaccharide C-Poly-2
# [16] = molecular target: pneumococcal polysaccharide Pn1
# [17] = molecular target: pneumococcal polysaccharide Pn10A
# [18] = molecular target: pneumococcal polysaccharide Pn10B
# [19] = molecular target: pneumococcal polysaccharide Pn10C
# [20] = molecular target: pneumococcal polysaccharide Pn10F
# [21] = molecular target: pneumococcal polysaccharide Pn11A
# [22] = antibody concentration 81.7561 ng/mL
# [23] = antibody concentration 437.17 ng/mL
# [24] = antibody concentration 2337.65 ng/mL
# [25] = antibody concentration 12500 ng/mL
# [26] = antibody concentration 0.1 ng/mL
# [27] = antibody concentration 0.534724 ng/mL
# [28] = antibody concentration 2.8593 ng/mL
# [29] = antibody concentration 15.2894 ng/mL
binder,measurement,setting,value
B1,fluorescence intensity,[1]; [22],22 MFI
same,fluorescence intensity,[1]; [23],25 MFI
same,fluorescence intensity,[1]; [24],27.5 MFI
same,fluorescence intensity,[1]; [25],35 MFI
same,fluorescence intensity,[2]; [26],19.5 MFI
same,fluorescence intensity,[2]; [27],18.2 MFI
same,fluorescence intensity,[2]; [28],21.5 MFI
same,fluorescence intensity,[2]; [29],19 MFI
same,fluorescence intensity,[2]; [22],19.5 MFI
same,fluorescence intensity,[2]; [23],21 MFI
same,fluorescence intensity,[2]; [24],24.2 MFI
same,fluorescence intensity,[2]; [25],31.5 MFI
same,fluorescence intensity,[3]; [26],20.2 MFI
same,fluorescence intensity,[3]; [27],19.5 MFI
same,fluorescence intensity,[3]; [28],19.5 MFI
same,fluorescence intensity,[3]; [29],37 MFI
same,fluorescence intensity,[3]; [22],57.8 MFI
same,fluorescence intensity,[3]; [23],64 MFI
same,fluorescence intensity,[3]; [24],72.8 MFI
same,fluorescence intensity,[3]; [25],80.5 MFI
same,fluorescence intensity,[4]; [26],16 MFI
same,fluorescence intensity,[4]; [27],17 MFI
same,fluorescence intensity,[4]; [28],16 MFI
same,fluorescence intensity,[4]; [29],16.5 MFI
same,fluorescence intensity,[4]; [22],17 MFI
same,fluorescence intensity,[4]; [23],16.5 MFI
same,fluorescence intensity,[4]; [24],20.5 MFI
same,fluorescence intensity,[4]; [25],23.5 MFI
same,fluorescence intensity,[5]; [26],22 MFI
same,fluorescence intensity,[5]; [27],20 MFI
same,fluorescence intensity,[5]; [28],19.5 MFI
same,fluorescence intensity,[5]; [29],20.5 MFI
same,fluorescence intensity,[5]; [22],18.5 MFI
same,fluorescence intensity,[5]; [23],21.5 MFI
same,fluorescence intensity,[5]; [24],28 MFI
same,fluorescence intensity,[5]; [25],79 MFI
same,fluorescence intensity,[6]; [26],16 MFI
same,fluorescence intensity,[6]; [27],16.5 MFI
same,fluorescence intensity,[6]; [28],15.8 MFI
same,fluorescence intensity,[6]; [29],17.2 MFI
same,fluorescence intensity,[6]; [22],16.8 MFI
same,fluorescence intensity,[6]; [23],16.5 MFI
same,fluorescence intensity,[6]; [24],19 MFI
same,fluorescence intensity,[6]; [25],28.8 MFI
same,fluorescence intensity,[7]; [26],16 MFI
same,fluorescence intensity,[7]; [27],16 MFI
same,fluorescence intensity,[7]; [28],14.2 MFI
same,fluorescence intensity,[7]; [29],15.8 MFI
same,fluorescence intensity,[7]; [22],16 MFI
same,fluorescence intensity,[7]; [23],16.2 MFI
same,fluorescence intensity,[7]; [24],17 MFI
same,fluorescence intensity,[7]; [25],23 MFI
same,fluorescence intensity,[8]; [26],14.2 MFI
same,fluorescence intensity,[8]; [27],13 MFI
same,fluorescence intensity,[8]; [28],16 MFI
same,fluorescence intensity,[8]; [29],15 MFI
same,fluorescence intensity,[8]; [22],15.8 MFI
same,fluorescence intensity,[8]; [23],16 MFI
same,fluorescence intensity,[8]; [24],24 MFI
same,fluorescence intensity,[8]; [25],62.5 MFI
same,fluorescence intensity,[9]; [26],21 MFI
same,fluorescence intensity,[9]; [27],21.5 MFI
same,fluorescence intensity,[9]; [28],22 MFI
same,fluorescence intensity,[9]; [29],22 MFI
same,fluorescence intensity,[9]; [22],21.5 MFI
same,fluorescence intensity,[9]; [23],23.8 MFI
same,fluorescence intensity,[9]; [24],27 MFI
same,fluorescence intensity,[9]; [25],41 MFI
same,fluorescence intensity,[10]; [26],19.5 MFI
same,fluorescence intensity,[10]; [27],19 MFI
same,fluorescence intensity,[10]; [28],18.5 MFI
same,fluorescence intensity,[10]; [29],18 MFI
same,fluorescence intensity,[10]; [22],18 MFI
same,fluorescence intensity,[10]; [23],19 MFI
same,fluorescence intensity,[10]; [24],22 MFI
same,fluorescence intensity,[10]; [25],33.2 MFI
same,fluorescence intensity,[11]; [26],17.2 MFI
same,fluorescence intensity,[11]; [27],18.8 MFI
same,fluorescence intensity,[11]; [28],17.5 MFI
same,fluorescence intensity,[11]; [29],18 MFI
same,fluorescence intensity,[11]; [22],18.5 MFI
same,fluorescence intensity,[11]; [23],18 MFI
same,fluorescence intensity,[11]; [24],18.2 MFI
same,fluorescence intensity,[11]; [25],25.5 MFI
same,fluorescence intensity,[12]; [26],16 MFI
same,fluorescence intensity,[12]; [27],15.5 MFI
same,fluorescence intensity,[12]; [28],15.8 MFI
same,fluorescence intensity,[12]; [29],16 MFI
same,fluorescence intensity,[12]; [22],15.5 MFI
same,fluorescence intensity,[12]; [23],16 MFI
same,fluorescence intensity,[12]; [24],17.5 MFI
same,fluorescence intensity,[12]; [25],24.5 MFI
same,fluorescence intensity,[13]; [26],15 MFI
same,fluorescence intensity,[13]; [27],15 MFI
same,fluorescence intensity,[13]; [28],15.5 MFI
same,fluorescence intensity,[13]; [29],15 MFI
same,fluorescence intensity,[13]; [22],14.5 MFI
same,fluorescence intensity,[13]; [23],15 MFI
same,fluorescence intensity,[13]; [24],17.5 MFI
same,fluorescence intensity,[13]; [25],21.5 MFI
B2,fluorescence intensity,[14]; [26],27.8 MFI
same,fluorescence intensity,[14]; [27],26 MFI
same,fluorescence intensity,[14]; [28],25.8 MFI
same,fluorescence intensity,[14]; [29],25 MFI
same,fluorescence intensity,[14]; [22],26.5 MFI
same,fluorescence intensity,[14]; [23],30 MFI
same,fluorescence intensity,[14]; [24],36.5 MFI
same,fluorescence intensity,[14]; [25],118 MFI
same,fluorescence intensity,[15]; [26],22 MFI
same,fluorescence intensity,[15]; [27],20.5 MFI
same,fluorescence intensity,[15]; [28],21 MFI
same,fluorescence intensity,[15]; [29],21 MFI
same,fluorescence intensity,[15]; [22],23.2 MFI
same,fluorescence intensity,[15]; [23],24 MFI
same,fluorescence intensity,[15]; [24],31 MFI
same,fluorescence intensity,[15]; [25],108 MFI
same,fluorescence intensity,[16]; [26],15 MFI
same,fluorescence intensity,[16]; [27],13 MFI
same,fluorescence intensity,[16]; [28],14 MFI
same,fluorescence intensity,[16]; [29],13.2 MFI
same,fluorescence intensity,[16]; [22],13.5 MFI
same,fluorescence intensity,[16]; [23],16 MFI
same,fluorescence intensity,[16]; [24],18 MFI
same,fluorescence intensity,[16]; [25],31.8 MFI
same,fluorescence intensity,[17]; [26],25 MFI
same,fluorescence intensity,[17]; [27],27 MFI
same,fluorescence intensity,[17]; [28],25.8 MFI
same,fluorescence intensity,[17]; [29],26.2 MFI
same,fluorescence intensity,[17]; [22],26.5 MFI
same,fluorescence intensity,[17]; [23],27 MFI
same,fluorescence intensity,[17]; [24],27.5 MFI
same,fluorescence intensity,[17]; [25],35 MFI
same,fluorescence intensity,[18]; [26],21.8 MFI
same,fluorescence intensity,[18]; [27],24 MFI
same,fluorescence intensity,[18]; [28],22.5 MFI
same,fluorescence intensity,[18]; [29],22.8 MFI
same,fluorescence intensity,[18]; [22],24.5 MFI
same,fluorescence intensity,[18]; [23],22 MFI
same,fluorescence intensity,[18]; [24],22.8 MFI
same,fluorescence intensity,[18]; [25],30.2 MFI
same,fluorescence intensity,[19]; [26],15 MFI
same,fluorescence intensity,[19]; [27],17 MFI
same,fluorescence intensity,[19]; [28],17 MFI
same,fluorescence intensity,[19]; [29],16.5 MFI
same,fluorescence intensity,[19]; [22],15 MFI
same,fluorescence intensity,[19]; [23],17.5 MFI
same,fluorescence intensity,[19]; [24],18.5 MFI
same,fluorescence intensity,[19]; [25],19.5 MFI
same,fluorescence intensity,[20]; [26],19.2 MFI
same,fluorescence intensity,[20]; [27],18.5 MFI
same,fluorescence intensity,[20]; [28],19.5 MFI
same,fluorescence intensity,[20]; [29],17.8 MFI
same,fluorescence intensity,[20]; [22],22 MFI
same,fluorescence intensity,[20]; [23],19.5 MFI
same,fluorescence intensity,[20]; [24],19.5 MFI
same,fluorescence intensity,[20]; [25],21.8 MFI
same,fluorescence intensity,[21]; [26],29 MFI
same,fluorescence intensity,[21]; [27],29 MFI
same,fluorescence intensity,[21]; [28],27.2 MFI
same,fluorescence intensity,[21]; [29],29.8 MFI

# Retrieved one by one from above (6):
binder,measurement,setting,value
B1,fluorescence intensity,[12]; [22],15.5 MFI
B2,fluorescence intensity,[18]; [29],22.8 MFI
same,fluorescence intensity,[21]; [28],27.2 MFI
B1,fluorescence intensity,[8]; [27],13 MFI
same,fluorescence intensity,[9]; [28],22 MFI
same,fluorescence intensity,[2]; [28],21.5 MFI

# An excerpt of these results, with tabs.
binder	measurement	setting	value
B1	fluorescence intensity	[2]; [22]	19.5 MFI
same	fluorescence intensity	[3]; [28]	19.5 MFI
same	fluorescence intensity	[6]; [22]	16.8 MFI
same	fluorescence intensity	[7]; [25]	23 MFI
same	fluorescence intensity	[9]; [28]	22 MFI
B2	fluorescence intensity	[18]; [25]	30.2 MFI
same	fluorescence intensity	[20]; [24]	19.5 MFI
